Measured values published in publication PMC7819943, “Rice protein-binding microarrays: a tool to detect cis-acting elements near promoter regions in rice”.
This is one part of the list.

Target: T1, OsSMF1 (Oryza sativa, UniProt Q6ZLB0 1-436)
T1 sequence: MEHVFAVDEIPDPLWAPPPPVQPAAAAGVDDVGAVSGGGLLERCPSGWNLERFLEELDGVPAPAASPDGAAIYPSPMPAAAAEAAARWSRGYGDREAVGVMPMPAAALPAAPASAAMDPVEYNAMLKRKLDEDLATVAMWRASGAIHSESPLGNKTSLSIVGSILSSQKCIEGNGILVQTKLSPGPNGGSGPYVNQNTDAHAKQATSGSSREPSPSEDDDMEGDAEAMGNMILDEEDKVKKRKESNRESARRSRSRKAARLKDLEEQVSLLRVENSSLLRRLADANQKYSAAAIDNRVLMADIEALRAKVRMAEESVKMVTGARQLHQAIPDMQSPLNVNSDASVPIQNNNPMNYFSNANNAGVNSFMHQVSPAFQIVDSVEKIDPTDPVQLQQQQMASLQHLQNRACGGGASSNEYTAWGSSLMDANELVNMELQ
Assay: protein-binding microarray (RPBM); PBS, 2% BSA, 51.3 ng/ul salmon testes DNA, 50 uM zinc acetate, 200 nM TF, 25 C, 1 h; high values mean tight binding
Conditions: protein: recombinant; tags: N-terminal polyhistidine and DsRed monomer fusion (pET32a); chain copies: 2; label: CyDye5-dUTP incorporated in the synthesized complementary strand; 3' TTTTT single-stranded linker to array surface; dsDNA, one strand shown
How it was run: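 Binding signal is defined as the fluorescence intensity of each feature in arbitrary units, read on an Axon 4000B scanner. Transcription factors with N-terminal polyhistidine and DsRed fusions came from E. coli BL21-CodonPlus and were purified on Ni–NTA. They were incubated at 200 nM for 1 h at 25 °C on a custom Agilent array that had been made double-stranded with Cy5-dUTP, with 50 µM zinc acetate present, and the array was washed.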

| Sequence | binding signal |
| --- | --- |
| TATAATAGTAGGTTATAAGCCGGCTAAATGCTGAGTTGGACGGAGTCACCTAGTGCAG | 6560 fluorescence intensity (a.u.) |
| CTTCAGGGTCTAGTCTTTTCAAACCATCGGAGTTATCGTCCGGAGTCACCTAGTGCAG | 3530 fluorescence intensity (a.u.) |
| AGCAGCTTGTATGAGCTCTGCATCGGAAGCCACTCGTCGACGGAGTCACCTAGTGCAG | 5540 fluorescence intensity (a.u.) |
| CCTAATTATCTTAGTAATCACCTTTCTTAGTCACCGGCAACGGAGTCACCTAGTGCAG | 4200 fluorescence intensity (a.u.) |
| TTATTTTCCTGCTAAAATTGCCACGTAGGACGGTTGTGCTCGGAGTCACCTAGTGCAG | 19000 fluorescence intensity (a.u.) |
| TTTGGATTCTATCTATTTCTGTGTCATCAGATGCACACCGCGGAGTCACCTAGTGCAG | 7520 fluorescence intensity (a.u.) |
| GTGAGATTTGTTGCAACATACTGTGGCCCACTTGTCAGATCGGAGTCACCTAGTGCAG | 3700 fluorescence intensity (a.u.) |
| GATACGCGGCGGCTGAGTCAGCGTGGGACCCACGTGGGCCCGGAGTCACCTAGTGCAG | 13000 fluorescence intensity (a.u.) |
| TCGTGGCCGTCCGATGCGTATAAATCGACGCCTCCATCTCCGGAGTCACCTAGTGCAG | 32500 fluorescence intensity (a.u.) |
| GTAAAGGGTACCAAGCCCACAGTGGGCGTGACCCTAGCTTCGGAGTCACCTAGTGCAG | 3220 fluorescence intensity (a.u.) |
| TCCGAAAGGAGCAGCCTCCACATCAACCGCCTCTCTCATTCGGAGTCACCTAGTGCAG | 3720 fluorescence intensity (a.u.) |
| TACACCAGCGATGGTTACTAGCATTCAGAGAAACACCACACGGAGTCACCTAGTGCAG | 30300 fluorescence intensity (a.u.) |
| TTAGTCGCAAACTAAAATAAAGATGATGTCATTGACCATACGGAGTCACCTAGTGCAG | 10800 fluorescence intensity (a.u.) |
| TCCATTTCTGAGCTCTTCTAGTTTGAGTGAGAGAGCAGCACGGAGTCACCTAGTGCAG | 22800 fluorescence intensity (a.u.) |
| AAGGTGATCAGGAAAAGCAACATTGCAATGCAGAAATGCACGGAGTCACCTAGTGCAG | 34600 fluorescence intensity (a.u.) |
| TTCGCTGCTCGGCCTGGCTCGACTGATGTACACCGCTGCACGGAGTCACCTAGTGCAG | 3590 fluorescence intensity (a.u.) |
| GCAAACCCCATCCATTTTGAAACGAAAGCTGACAAGTGAACGGAGTCACCTAGTGCAG | 3220 fluorescence intensity (a.u.) |
| ATTATTAAAATATATAAATATTGAATTTAATAAAATAATTCGGAGTCACCTAGTGCAG | 26400 fluorescence intensity (a.u.) |
| ATGTGGCTAGAGTTGGGGTTTAGTGTCAGTTGTTAGGGATCGGAGTCACCTAGTGCAG | 3310 fluorescence intensity (a.u.) |
| GATTCTTCTATGTGGCATGAGGTAACCCTGGGTCGGCTTGCGGAGTCACCTAGTGCAG | 4110 fluorescence intensity (a.u.) |
| TTGTTCTACCACGTGTCCTATCCTCCTCCTCCCAACATCGCGGAGTCACCTAGTGCAG | 16900 fluorescence intensity (a.u.) |

Exported in CSV form: entries from further up.
Sequence,binding signal
TTTGGATTCTATCTATTTCTGTGTCATCAGATGCACACCGCGGAGTCACCTAGTGCAG,7520 fluorescence intensity (a.u.)
ATTATTAAAATATATAAATATTGAATTTAATAAAATAATTCGGAGTCACCTAGTGCAG,26400 fluorescence intensity (a.u.)

(cont.)

| Sequence | binding signal |
| --- | --- |
| ATACATATAGCCACATCATATTTATGCTTATGTGGAGGAGCGGAGTCACCTAGTGCAG | 8400 fluorescence intensity (a.u.) |
| CTTTGGTCGTATACGTAATACGAACGTGGATACGCCTCCACGGAGTCACCTAGTGCAG | 6020 fluorescence intensity (a.u.) |
| TACCGATCCCGCCGGCTGCACGACGCCGACCCGACACACCCGGAGTCACCTAGTGCAG | 18500 fluorescence intensity (a.u.) |
| GTAGGTGGATGGTGTGGCCTGCACTCGTTCGGCTTCTACTCGGAGTCACCTAGTGCAG | 3870 fluorescence intensity (a.u.) |
| AAGAAGCTGTGCCACGTGTTTCCTCCTTCCCCTCCTCGATCGGAGTCACCTAGTGCAG | 18900 fluorescence intensity (a.u.) |
| CAGTGTACGAGCTGGTGTGTGTTTCTCTCCGTTTCGTTTCCGGAGTCACCTAGTGCAG | 4080 fluorescence intensity (a.u.) |
| GCGAGCAAATTATTCGCCACGCTTGCGGCACGACTGTTGCCGGAGTCACCTAGTGCAG | 3640 fluorescence intensity (a.u.) |
| TTGGTGTTGTTACATCAGCATCCATCAGTTTTGTTACCCCCGGAGTCACCTAGTGCAG | 6030 fluorescence intensity (a.u.) |
| ACAGCCAACGTGTATCATCAGTAGATTCCACCCCAAGATCCGGAGTCACCTAGTGCAG | 4540 fluorescence intensity (a.u.) |
| TCATGATGCCACGGCACAATATTTTGGTGTGATCCTACACCGGAGTCACCTAGTGCAG | 3260 fluorescence intensity (a.u.) |
| GATATCACACTATCTATGACAACGAATTTGGACAGTGGGTCGGAGTCACCTAGTGCAG | 3500 fluorescence intensity (a.u.) |
| ATTTTGGCTGACTAGACTGCCACGTATGCGTCCACGTAGGCGGAGTCACCTAGTGCAG | 29500 fluorescence intensity (a.u.) |
| ATGGGCAATACCAATAGCTAAGCCAAGCCAAATTTCTTCTCGGAGTCACCTAGTGCAG | 26200 fluorescence intensity (a.u.) |
| GCGTTTAAGGATTAGGAATTATAAGCTGATGCGTACACAGCGGAGTCACCTAGTGCAG | 3650 fluorescence intensity (a.u.) |
| GCTACTATCTATACTATTATCAGCGTCACGTGAGCTCGCTCGGAGTCACCTAGTGCAG | 4040 fluorescence intensity (a.u.) |
| AGATGGATCAAACGGGTTGGTTGTCGTGTCACCTCCATTCCGGAGTCACCTAGTGCAG | 7340 fluorescence intensity (a.u.) |
| TCCGTATTTTAATGTATGACGCTGTTGACTTTCGACCTACCGGAGTCACCTAGTGCAG | 7860 fluorescence intensity (a.u.) |
| GTCAGTGGGTCCCATAATATATTTTGTGTGTGAATGACAGCGGAGTCACCTAGTGCAG | 3400 fluorescence intensity (a.u.) |
| ACTAGGATGTGTCACGTTTAGTTTTAGTTTGTATTTTATGCGGAGTCACCTAGTGCAG | 5970 fluorescence intensity (a.u.) |
| TGACCGGCGCAGCTCGCGCCACGTCACCCGCACGCGCCGCCGGAGTCACCTAGTGCAG | 8600 fluorescence intensity (a.u.) |
| TAAAACTAGTCAACACTGTCGTGTAAACGTCACGTAAGCGCGGAGTCACCTAGTGCAG | 6840 fluorescence intensity (a.u.) |
